In doi:10.1101/2024.08.22.609103:
These are yes or no findings as the source states them, for the method shown. Binding seen in cells or lysates may run through a third protein. Some results given as binding are weak or reduced against the parent protein; the word gives no strength. Tags and fused reporters may be left off the sequences shown.

Protein sequences, listed by entry. Tags and fused reporters are not part of them.
UniProt Q9P2D1: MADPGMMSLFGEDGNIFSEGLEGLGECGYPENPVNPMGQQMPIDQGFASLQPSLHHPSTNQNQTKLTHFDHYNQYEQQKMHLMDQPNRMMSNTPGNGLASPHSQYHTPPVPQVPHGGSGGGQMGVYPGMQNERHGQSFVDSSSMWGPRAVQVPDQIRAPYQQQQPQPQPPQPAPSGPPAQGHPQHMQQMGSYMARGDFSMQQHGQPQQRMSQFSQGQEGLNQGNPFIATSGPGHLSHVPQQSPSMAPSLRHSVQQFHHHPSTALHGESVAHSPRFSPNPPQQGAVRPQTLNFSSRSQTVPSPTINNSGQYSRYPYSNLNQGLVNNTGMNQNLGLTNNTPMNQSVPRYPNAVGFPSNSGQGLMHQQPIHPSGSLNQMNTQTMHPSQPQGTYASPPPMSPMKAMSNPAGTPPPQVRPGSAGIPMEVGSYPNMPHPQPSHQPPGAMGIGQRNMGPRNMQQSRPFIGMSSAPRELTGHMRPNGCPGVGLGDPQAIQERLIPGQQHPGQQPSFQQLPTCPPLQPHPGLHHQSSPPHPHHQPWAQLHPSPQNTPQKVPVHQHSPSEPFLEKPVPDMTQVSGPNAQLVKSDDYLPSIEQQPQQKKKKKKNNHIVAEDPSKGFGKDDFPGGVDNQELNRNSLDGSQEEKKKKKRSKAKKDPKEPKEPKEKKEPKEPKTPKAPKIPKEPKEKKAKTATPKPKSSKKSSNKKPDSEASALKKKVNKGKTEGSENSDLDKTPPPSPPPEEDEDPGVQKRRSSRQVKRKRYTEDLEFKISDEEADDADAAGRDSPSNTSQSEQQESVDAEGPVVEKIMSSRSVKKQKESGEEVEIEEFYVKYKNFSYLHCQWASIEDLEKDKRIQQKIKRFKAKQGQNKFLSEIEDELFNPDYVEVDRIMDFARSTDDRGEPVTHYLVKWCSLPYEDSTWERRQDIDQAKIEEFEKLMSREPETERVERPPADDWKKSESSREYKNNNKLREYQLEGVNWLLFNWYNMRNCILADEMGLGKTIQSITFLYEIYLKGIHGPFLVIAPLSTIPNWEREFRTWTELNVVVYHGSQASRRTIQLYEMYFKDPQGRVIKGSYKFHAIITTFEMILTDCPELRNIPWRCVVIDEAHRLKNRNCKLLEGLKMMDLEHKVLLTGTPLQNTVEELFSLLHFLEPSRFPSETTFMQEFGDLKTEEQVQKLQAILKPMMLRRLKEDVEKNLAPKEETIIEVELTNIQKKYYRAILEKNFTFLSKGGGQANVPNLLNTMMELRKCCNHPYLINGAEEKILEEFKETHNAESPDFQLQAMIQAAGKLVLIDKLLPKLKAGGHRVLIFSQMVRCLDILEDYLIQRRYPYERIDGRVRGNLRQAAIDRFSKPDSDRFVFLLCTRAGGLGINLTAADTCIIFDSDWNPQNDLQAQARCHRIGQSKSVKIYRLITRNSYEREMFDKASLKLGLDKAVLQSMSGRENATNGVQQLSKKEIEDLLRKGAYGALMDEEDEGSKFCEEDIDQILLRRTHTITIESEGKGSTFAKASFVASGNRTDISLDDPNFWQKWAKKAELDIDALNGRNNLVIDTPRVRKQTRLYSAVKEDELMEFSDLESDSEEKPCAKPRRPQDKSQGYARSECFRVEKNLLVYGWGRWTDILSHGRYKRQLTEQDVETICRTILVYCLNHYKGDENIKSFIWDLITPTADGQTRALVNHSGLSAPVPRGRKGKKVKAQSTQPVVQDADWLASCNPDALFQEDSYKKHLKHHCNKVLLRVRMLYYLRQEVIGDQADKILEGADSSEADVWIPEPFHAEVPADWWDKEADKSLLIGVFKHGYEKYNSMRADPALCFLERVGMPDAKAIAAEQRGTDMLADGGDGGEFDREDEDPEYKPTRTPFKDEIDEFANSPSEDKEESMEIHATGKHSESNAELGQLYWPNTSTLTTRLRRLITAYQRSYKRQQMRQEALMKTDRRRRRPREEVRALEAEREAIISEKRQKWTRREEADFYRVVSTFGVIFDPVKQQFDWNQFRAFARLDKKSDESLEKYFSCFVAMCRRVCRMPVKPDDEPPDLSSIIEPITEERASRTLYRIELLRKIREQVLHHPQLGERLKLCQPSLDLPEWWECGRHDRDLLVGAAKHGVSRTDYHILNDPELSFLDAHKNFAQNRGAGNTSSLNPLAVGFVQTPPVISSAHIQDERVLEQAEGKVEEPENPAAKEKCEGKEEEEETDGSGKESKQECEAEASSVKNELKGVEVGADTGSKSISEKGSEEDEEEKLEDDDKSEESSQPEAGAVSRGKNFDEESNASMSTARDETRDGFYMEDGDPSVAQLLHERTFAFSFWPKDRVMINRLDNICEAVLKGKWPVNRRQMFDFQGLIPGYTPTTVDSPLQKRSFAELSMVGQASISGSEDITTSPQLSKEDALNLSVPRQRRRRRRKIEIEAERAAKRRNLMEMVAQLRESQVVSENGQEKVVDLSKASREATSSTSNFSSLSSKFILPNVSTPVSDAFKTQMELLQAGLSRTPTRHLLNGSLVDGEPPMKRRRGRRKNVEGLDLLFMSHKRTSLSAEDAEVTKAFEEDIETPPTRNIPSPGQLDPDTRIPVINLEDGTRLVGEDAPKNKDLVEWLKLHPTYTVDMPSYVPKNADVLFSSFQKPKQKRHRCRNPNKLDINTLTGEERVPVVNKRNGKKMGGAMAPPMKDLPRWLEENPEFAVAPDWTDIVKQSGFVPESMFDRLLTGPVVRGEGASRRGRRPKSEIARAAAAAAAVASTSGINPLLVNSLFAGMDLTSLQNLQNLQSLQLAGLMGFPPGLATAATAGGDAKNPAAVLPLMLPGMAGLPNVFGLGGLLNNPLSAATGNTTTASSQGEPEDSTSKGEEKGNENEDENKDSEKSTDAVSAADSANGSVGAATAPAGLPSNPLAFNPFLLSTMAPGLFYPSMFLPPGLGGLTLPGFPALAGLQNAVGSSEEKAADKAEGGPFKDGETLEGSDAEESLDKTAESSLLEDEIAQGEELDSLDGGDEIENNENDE

Biological target: FLAG-tagged CHD7 (Chromodomain Helicase DNA-binding factor 7) (UniProt Q9P2D1)
Assay: co-IP

binding: binds
B1: HA-tagged Atoh1 (protein, UniProt P48985 1-351)
chain: MSRLLHAEEWAEVKELGDHHRHPQPHHVPPLTPQPPATLQARDLPVYPAELSLLDSTDPRAWLTPTLQGLCTARAAQYLLHSPELGASEAAAPRDEADSQGELVRRSGCGGLSKSPGPVKVREQLCKLKGGVVVDELGCSRQRAPSSKQVNGVQKQRRLAANARERRRMHGLNHAFDQLRNVIPSFNNDKKLSKYETLQMAQIYINALSELLQTPNVGEQPPPPTASCKNDHHHLRTASSYEGGAGASAVAGAQPAPGGGPRPTPPGPCRTRFSGPASSGGYSVQLDALHFPAFEDRALTAMMAQKDLSPSLPGGILQPVQEDNSKTSPRSHRSDGEFSPHSHYSDSDEAS
